The values that follow come from publication PMC12246428.

Amino acid sequences for entries named in this document (tags omitted).
UniProt P16671: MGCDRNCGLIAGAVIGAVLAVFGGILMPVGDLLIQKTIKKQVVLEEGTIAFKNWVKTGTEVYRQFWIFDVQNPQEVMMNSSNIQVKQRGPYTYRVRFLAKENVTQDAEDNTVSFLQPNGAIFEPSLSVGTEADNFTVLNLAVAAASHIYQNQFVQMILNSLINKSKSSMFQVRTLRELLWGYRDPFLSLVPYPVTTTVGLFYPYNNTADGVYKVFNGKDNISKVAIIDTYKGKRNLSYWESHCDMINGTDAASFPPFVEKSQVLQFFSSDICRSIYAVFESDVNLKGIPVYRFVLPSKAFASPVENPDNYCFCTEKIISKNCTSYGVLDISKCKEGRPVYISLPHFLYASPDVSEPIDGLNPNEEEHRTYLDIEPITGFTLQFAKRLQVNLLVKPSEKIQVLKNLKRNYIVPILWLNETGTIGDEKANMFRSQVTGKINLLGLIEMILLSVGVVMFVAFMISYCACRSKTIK

The experiment has as its target T1, PLIN2 (human (endogenous in RKO and SW480)) (UniProt Q99541).
T1 sequence: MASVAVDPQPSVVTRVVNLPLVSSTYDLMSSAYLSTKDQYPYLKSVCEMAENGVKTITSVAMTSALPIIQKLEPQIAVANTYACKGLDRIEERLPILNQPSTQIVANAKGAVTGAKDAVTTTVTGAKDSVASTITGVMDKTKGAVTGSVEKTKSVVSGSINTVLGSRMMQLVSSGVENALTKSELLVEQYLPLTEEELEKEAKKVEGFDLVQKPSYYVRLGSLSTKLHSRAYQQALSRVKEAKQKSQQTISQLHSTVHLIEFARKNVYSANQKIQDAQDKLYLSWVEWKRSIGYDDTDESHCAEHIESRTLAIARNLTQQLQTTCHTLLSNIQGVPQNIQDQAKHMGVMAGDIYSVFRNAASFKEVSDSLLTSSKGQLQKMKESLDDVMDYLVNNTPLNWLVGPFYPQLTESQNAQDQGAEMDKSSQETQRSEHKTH
As to the kind of experiment: co-IP; endogenous proteins in RKO or SW480 lysate (IP lysis buffer); primary antibody and protein A/G beads overnight at 4 °C, three washes, Western blot; IgG control. (Immunoblotting shows a protein as a band on a membrane.)

Results are given in words; binding and its absence hold for the method and conditions named. In cells and extracts the contact can be indirect. Some binding calls cover weakened binding; strength is not graded here.

Take “CD36 (from UniProt P16671 1-472) (receptor)”: the binding result was “binds”.
